# No constants are given. Whether binding was seen depends on the method and setting. Binding seen in cells or lysates may run through a third protein. A yes stands for co-enrichment or nearness to the bait. Other partners may have been found. Where a sequence is shown, tags or fusion partners need not be part of it.
# Molecular target: T1, Flag-TAK1 (UniProt O43318)
# T1 sequence: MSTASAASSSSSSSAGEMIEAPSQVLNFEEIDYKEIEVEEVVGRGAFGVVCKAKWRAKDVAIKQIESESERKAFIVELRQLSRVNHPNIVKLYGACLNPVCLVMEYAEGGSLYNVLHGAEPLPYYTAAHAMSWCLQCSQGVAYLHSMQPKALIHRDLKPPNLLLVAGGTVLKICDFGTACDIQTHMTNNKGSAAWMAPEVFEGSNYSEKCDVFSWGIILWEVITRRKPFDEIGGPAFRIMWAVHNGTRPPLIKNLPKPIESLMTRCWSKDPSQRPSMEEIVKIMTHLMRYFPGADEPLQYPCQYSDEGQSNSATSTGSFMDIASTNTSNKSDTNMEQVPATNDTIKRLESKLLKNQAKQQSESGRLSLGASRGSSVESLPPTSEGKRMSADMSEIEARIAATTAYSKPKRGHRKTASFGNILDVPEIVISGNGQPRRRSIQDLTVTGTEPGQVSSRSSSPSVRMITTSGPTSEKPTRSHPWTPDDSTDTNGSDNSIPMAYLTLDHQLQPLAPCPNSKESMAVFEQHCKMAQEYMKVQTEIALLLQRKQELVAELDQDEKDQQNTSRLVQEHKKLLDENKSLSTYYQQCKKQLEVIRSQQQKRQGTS
# Assay: affinity purification with mass spectrometry
substance,measurement,value
"Mfn2 (endogenous, COS-7)",binding,binds

# From publication doi:10.1101/2022.01.11.475884 (bioRxiv, 2022)
